Measurements taken from publication PMC11549291.
No constants are given. Whether binding was seen depends on the method and setting. In cells and extracts the contact can be indirect. Here binding means that the protein was enriched with, or labelled near, the bait; the list need not be complete.

Chains of the proteins cited; added tags and fusions are not shown.
UniProt Q8CJ19: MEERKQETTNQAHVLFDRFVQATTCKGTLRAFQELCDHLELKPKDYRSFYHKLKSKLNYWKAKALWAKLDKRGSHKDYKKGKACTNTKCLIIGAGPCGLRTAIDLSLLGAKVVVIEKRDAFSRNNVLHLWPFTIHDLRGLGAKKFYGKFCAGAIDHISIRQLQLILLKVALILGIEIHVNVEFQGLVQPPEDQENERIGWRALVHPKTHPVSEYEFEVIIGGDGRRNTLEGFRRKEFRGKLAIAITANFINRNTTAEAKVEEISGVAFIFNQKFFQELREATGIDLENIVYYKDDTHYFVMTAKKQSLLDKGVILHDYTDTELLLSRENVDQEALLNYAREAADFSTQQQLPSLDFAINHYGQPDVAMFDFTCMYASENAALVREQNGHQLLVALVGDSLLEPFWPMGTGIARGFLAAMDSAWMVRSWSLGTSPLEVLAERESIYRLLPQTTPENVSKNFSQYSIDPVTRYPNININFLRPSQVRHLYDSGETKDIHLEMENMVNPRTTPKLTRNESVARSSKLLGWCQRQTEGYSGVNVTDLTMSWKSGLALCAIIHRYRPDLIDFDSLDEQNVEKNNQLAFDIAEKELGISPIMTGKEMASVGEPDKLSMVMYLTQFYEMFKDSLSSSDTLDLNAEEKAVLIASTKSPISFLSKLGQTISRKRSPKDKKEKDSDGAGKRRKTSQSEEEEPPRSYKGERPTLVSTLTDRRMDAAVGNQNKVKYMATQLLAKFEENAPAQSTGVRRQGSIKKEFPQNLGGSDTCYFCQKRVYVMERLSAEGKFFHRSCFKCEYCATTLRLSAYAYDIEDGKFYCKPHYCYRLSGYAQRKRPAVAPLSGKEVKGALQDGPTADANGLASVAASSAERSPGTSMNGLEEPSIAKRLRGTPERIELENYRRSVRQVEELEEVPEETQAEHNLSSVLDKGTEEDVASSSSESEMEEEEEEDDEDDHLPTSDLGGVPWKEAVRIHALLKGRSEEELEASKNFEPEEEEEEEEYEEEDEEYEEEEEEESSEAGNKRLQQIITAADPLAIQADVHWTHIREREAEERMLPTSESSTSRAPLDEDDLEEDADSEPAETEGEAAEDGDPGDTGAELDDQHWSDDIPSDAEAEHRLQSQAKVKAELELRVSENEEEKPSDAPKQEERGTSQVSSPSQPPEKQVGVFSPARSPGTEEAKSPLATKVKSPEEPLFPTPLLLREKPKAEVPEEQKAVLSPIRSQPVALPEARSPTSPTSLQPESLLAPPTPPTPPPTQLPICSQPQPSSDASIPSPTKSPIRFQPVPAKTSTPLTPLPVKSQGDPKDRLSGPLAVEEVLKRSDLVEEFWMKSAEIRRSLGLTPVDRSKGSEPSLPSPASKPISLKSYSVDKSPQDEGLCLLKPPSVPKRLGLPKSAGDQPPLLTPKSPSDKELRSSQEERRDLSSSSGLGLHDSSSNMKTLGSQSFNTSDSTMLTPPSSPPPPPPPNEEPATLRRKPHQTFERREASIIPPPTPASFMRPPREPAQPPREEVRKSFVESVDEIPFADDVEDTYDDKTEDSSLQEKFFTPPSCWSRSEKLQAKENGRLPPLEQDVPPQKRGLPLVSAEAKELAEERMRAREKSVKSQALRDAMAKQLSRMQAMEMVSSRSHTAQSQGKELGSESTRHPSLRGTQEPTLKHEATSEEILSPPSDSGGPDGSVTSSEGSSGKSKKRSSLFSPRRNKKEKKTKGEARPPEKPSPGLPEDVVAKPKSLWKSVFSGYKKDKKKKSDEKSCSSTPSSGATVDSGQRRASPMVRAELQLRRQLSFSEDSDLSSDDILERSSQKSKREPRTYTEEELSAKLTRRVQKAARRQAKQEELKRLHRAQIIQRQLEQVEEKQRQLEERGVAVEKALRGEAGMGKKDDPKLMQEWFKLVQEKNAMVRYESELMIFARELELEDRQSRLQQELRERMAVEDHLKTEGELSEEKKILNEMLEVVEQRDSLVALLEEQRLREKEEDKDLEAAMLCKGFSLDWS

Target: T1, CHK1 (mouse zygotes) (mouse (endogenous in mouse zygotes)) (UniProt O35280)
T1 sequence: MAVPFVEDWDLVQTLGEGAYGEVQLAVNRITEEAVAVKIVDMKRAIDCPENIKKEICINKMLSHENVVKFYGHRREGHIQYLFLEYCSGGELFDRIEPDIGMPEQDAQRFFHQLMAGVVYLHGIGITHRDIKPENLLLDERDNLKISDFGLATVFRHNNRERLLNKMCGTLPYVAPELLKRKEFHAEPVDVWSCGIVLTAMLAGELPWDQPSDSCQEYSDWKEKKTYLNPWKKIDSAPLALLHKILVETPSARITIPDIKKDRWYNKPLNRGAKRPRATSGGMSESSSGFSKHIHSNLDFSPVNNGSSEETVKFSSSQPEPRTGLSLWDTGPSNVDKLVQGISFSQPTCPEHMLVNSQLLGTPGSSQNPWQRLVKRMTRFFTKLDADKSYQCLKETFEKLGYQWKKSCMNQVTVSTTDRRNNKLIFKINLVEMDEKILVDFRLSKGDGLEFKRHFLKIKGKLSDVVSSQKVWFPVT
Test: affinity purification with mass spectrometry; lysates of 6000 mouse zygotes pooled; IP with 1 ug CHK1 antibody overnight at 4 C, Protein A/G magnetic beads; proteins of an IgG control subtracted; gel band analysed by mass spectrometry

binding: binds
Substance: MICAL3 (mouse zygotes) (from UniProt Q8CJ19 1-1993)
